Source: PMC7768192
Results are given in words; binding and its absence hold for the method and conditions named. Binding seen in cells or lysates may run through a third protein. Some entries that bind do so weakly or less than the wild type.

Amino acid sequences for entries named in this document (tags omitted).
UniProt Q8NEG4: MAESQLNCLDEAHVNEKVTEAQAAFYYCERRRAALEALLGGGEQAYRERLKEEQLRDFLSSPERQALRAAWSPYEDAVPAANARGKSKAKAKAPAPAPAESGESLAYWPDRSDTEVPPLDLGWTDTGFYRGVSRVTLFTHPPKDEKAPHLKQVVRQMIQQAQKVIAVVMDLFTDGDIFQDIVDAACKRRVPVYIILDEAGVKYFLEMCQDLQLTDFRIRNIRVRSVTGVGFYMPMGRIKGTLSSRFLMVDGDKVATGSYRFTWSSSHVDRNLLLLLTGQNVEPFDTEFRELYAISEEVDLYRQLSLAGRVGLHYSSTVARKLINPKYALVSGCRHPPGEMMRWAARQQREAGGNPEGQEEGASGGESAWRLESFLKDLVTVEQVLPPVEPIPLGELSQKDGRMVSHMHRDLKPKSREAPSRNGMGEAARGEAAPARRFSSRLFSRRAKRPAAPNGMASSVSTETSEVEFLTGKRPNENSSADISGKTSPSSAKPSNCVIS
UniProt P48729: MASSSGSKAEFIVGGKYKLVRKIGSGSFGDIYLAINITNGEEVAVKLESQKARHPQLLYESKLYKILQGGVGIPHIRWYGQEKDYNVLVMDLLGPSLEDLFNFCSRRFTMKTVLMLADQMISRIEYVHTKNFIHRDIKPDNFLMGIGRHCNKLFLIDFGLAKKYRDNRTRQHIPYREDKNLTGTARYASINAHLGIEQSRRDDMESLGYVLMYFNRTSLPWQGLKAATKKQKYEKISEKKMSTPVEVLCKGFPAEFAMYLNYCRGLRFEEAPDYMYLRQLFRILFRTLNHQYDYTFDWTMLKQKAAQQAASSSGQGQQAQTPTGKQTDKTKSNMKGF
UniProt P49674: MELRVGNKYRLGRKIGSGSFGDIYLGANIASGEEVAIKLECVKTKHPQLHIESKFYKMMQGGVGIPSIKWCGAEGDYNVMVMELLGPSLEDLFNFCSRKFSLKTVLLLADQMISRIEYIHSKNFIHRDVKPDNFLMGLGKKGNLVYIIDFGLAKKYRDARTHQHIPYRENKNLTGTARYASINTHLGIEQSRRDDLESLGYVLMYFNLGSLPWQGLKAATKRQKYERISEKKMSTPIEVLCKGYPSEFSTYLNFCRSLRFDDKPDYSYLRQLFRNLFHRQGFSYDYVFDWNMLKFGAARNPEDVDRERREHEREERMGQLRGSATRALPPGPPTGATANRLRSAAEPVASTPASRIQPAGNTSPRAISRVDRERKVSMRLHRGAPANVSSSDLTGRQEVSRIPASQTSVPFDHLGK

What was measured:
[1] = target: GFP-FAM83F (endogenous knock-in, ^GFP/GFPFAM83F) (human (endogenous in HCT116 and DLD-1)) (UniProt Q8NEG4); experiment: co-IP; GFP-Trap agarose beads on extracts (1 mg protein) of HCT116 and DLD-1 GFP/GFP FAM83F knock-in cells, wild-type cells as control, 16 h at 4°C; Western blot for endogenous CK1α, CK1δ, CK1ε
[2] = target: casein kinase 1α (human (endogenous in U2OS, HCT116 and DLD-1)) (UniProt P48729); experiment: co-IP; anti-CK1α antibody (1 μg) and Protein G Sepharose on extracts (1 mg protein) of HCT116 and DLD-1 cells (wild-type, FAM83F^-/-, FAM83F^C497A knock-in), untreated or treated with L-CM or Wnt3A-CM for 6 h; Western blot for FAM83F and FAM83G

| Substance | binding [1] | binding [2] |
| --- | --- | --- |
| CK1ε (from UniProt P49674 1-416) (enzyme) | no binding |  |
| FAM83F (endogenous) (from UniProt Q8NEG4 1-500) |  | binds |
